Measurements reported in PubChem BioAssay AID1671195 (Yale University, 2021).
The deposit covers about 22,000 reagents; below is a part drawn at random. About 1,510 of them (6.9%) count as active. 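Active includes knockdowns raising or lowering LDL uptake; positive z-scores mean more uptake, negative mean less.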 A number with no mark means an inactive call. Reagents against one gene are numbered here.

Purpose: 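Regulators of LDL receptor activity judged by labelled LDL uptake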 (primary screen)
Cell system: human Huh7 hepatoma cells
Reagents: siRNA pool against human genes, 18 nM
Time to read-out: about 2 to 2.5 days of knockdown, then 8 h LDL uptake
Conditions: DiI-labelled LDL at 30 µg/ml for 8 h, in lipoprotein-deficient serum medium
Measurement: 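Per-cell DiI-LDL intensity by automated imaging; well means scaled to the plate median and given as a robust z-score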
Direction: robust z-score: higher = more LDL uptake after knockdown
Rule for the call: 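Active when two or more replicates show a robust z-score above 2 or below -2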

no.	Target gene	reagent	robust z-score, replicate 1	robust z-score, replicate 2	robust z-score, replicate 3
1	CD1D (CD1d molecule)	1	0.355	-1.2	0.344
2	PPP1R3D (protein phosphatase 1 regulatory subunit 3D)	1	-1.72	-1.77	-1.88
3	C1QL2 (complement C1q like 2)	1	0.0113	-0.576	0.944
4	PDGFC (platelet derived growth factor C)	1	1.65	2.5	0.903
5	ARHGAP30 (Rho GTPase activating protein 30)	1	-0.768	-0.167	-0.47
6	TMEM132B (transmembrane protein 132B)	1	-0.7	-0.303	0.0971
7	TMEM132B (transmembrane protein 132B)	2	0.237	-1.22	-0.578
8	CLC (Charcot-Leyden crystal galectin)	1	-1.3	-0.573	-1.5
9	AKNA (AT-hook transcription factor)	1	0.326	0.0313	0.377
10	OBSCN-AS1 (OBSCN antisense RNA 1)	1	1.24	1.57	1.4
11	CPEB2-DT (CPEB2 divergent transcript)	1	0.237	0.19	1.02
12	LOC389393 (retired record)	1	-1.09	-1.14	-1.32
13	DPH5 (diphthamide biosynthesis 5)	1	-1.02	-0.92	-0.405
14	FTH1P4 (ferritin heavy chain 1 pseudogene 4)	1	-0.116	-1.25	-0.822
15	FASTKD1 (FASTK mitochondrial RNA regulator 1)	1	-0.807	-0.614	-0.55
16	GFI1 (growth factor independent 1 transcriptional repressor)	1	-0.264	-0.48	-0.767
17	P2RY8 (P2Y receptor family member 8)	1	-0.00469	0.048	0.787
18	ARL4A (ARF like GTPase 4A)	1	-0.981	-1.68	-1.56
19	DCXR (dicarbonyl and L-xylulose reductase)	1	0.282	-0.347	-0.244
20	TSPAN18 (tetraspanin 18)	1	-1.46	-1.69	-0.582
21	TMX2 (thioredoxin related transmembrane protein 2)	1	0.795	0.116	0.362
22	ROM1 (retinal outer segment membrane protein 1)	1	-0.631	-0.17	-0.14
23	NR2C2 (nuclear receptor subfamily 2 group C member 2)	1	0.469	0.716	-0.0397
24	PIEZO1-AS1 (PIEZO1 antisense RNA 1)	1	-0.85	-0.699	-0.645
25	LYPD2 (LY6/PLAUR domain containing 2)	1	-1.1	-0.212	-0.725
26	ASB9 (ankyrin repeat and SOCS box containing 9)	1	-1.37	-0.157	-1.12
27	HLA-L (major histocompatibility complex, class I, L (pseudogene))	1	0.194	-0.153	0.168
28	SRFBP1 (serum response factor binding protein 1)	1	0.549	0.594	0.941
29	KIAA1143	1	-0.821	-0.567	-0.275
30	ZNF658 (zinc finger protein 658)	1	-2.14 (active)	-2.09	-1.41
31	DHRS9 (dehydrogenase/reductase 9)	1	-2.24 (active)	-1.38	-2.56
32	PSMB8 (proteasome 20S subunit beta 8)	1	-1.95	-1.89	-1.9
33	RIPPLY1 (ripply transcriptional repressor 1)	1	-1.35	-1.42	-0.618
34	LOC340765 (retired record)	1	-0.222	-0.265	-0.0862
35	STX16 (syntaxin 16)	1	1.96	1.77	1.39
36	LOC442483 (retired record)	1	-1.43	-0.129	-1.14
37	LOC440857 (retired record)	1	-0.946	-1.04	-0.687
38	LOC441077 (retired record)	1	1.23	1.37	1.47
39	PXMP2 (peroxisomal membrane protein 2)	1	0.846	0.499	0.617
40	CXCL11 (C-X-C motif chemokine ligand 11)	1	0.312	0.41	0.0852
41	WDR76 (WD repeat domain 76)	1	0.0903	-0.592	-1.17
42	NLGN4X (neuroligin 4 X-linked)	1	-0.131	-0.748	0.89
43	RAB39B (RAB39B, member RAS oncogene family)	1	0.763	-0.264	-0.418
44	SMC5 (structural maintenance of chromosomes 5)	1	0.344	0.316	0.873
45	CLEC12A-AS1 (CLEC12A antisense RNA 1)	1	-0.805	-0.588	-0.457
46	DUSP5 (dual specificity phosphatase 5)	1	-0.422	-0.331	-0.705

Called active, among the entries above:
Target gene	reagent	robust z-score, replicate 1	robust z-score, replicate 2	robust z-score, replicate 3
ZNF658 (zinc finger protein 658)	1	-2.14 (active)	-2.09	-1.41
DHRS9 (dehydrogenase/reductase 9)	1	-2.24 (active)	-1.38	-2.56
